Laboratory results reported in PMC5795388.
Results are given in words; binding and its absence hold for the method and conditions named. In cells and extracts the contact can be indirect. Some entries that bind do so weakly or less than the wild type. One block for each binder: values may come before it.

Protein sequences, listed by entry. Tags and fused reporters are not part of them. Lines headed by an entry give the natural chain unless they say otherwise; changes in a name come on top.
UniProt Q8BMS1: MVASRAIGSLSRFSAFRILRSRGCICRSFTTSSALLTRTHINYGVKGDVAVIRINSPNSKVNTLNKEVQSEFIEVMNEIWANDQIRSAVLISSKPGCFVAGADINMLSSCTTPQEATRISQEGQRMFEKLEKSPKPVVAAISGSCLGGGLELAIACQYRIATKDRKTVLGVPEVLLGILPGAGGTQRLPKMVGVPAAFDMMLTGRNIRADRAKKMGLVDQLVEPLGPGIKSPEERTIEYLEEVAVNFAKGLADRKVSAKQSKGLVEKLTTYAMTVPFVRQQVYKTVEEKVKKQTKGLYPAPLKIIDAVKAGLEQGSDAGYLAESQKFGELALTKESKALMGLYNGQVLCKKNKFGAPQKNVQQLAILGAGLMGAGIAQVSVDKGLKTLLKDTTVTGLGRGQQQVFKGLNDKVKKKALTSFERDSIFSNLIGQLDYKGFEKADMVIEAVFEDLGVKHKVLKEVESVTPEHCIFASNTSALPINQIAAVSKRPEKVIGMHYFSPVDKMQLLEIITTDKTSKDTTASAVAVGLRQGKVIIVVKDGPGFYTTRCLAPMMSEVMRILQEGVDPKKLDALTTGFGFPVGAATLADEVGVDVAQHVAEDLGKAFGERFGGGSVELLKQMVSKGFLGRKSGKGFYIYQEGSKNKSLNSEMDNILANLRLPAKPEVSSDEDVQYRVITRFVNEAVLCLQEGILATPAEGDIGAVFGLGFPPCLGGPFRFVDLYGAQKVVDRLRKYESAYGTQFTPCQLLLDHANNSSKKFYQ
UniProt Q99JY0: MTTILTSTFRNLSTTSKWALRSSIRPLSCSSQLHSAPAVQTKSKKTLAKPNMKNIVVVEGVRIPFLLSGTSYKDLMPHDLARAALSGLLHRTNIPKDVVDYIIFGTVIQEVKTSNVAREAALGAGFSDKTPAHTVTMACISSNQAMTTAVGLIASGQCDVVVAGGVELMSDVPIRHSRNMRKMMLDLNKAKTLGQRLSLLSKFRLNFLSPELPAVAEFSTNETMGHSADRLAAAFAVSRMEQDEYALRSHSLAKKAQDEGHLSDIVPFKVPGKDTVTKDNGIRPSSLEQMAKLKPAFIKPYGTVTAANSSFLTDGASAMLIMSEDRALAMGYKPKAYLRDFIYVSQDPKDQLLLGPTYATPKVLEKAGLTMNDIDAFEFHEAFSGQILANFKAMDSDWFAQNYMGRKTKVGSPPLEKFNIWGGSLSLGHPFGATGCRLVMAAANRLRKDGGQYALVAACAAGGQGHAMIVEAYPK

Experiments:
Assay in all cases: cross-linking; XL-MS of intact (native) mouse heart mitochondria: 0.5 mM DSSO in HEENK buffer (10 mM HEPES, 1 mM EDTA, 1 mM EGTA, 10 mM NaCl, 150 mM KCl, pH 7.1), 20 °C, 1 h; Lys-Lys cross-links identified with XlinkX v2.0 at 2% FDR; two biological replicates
[1] = biological target: T1, electron transferring flavoprotein complex (mouse (endogenous in heart mitochondria)) (UniProt Q99LC5+Q9DCW4)
T1 sequence 1: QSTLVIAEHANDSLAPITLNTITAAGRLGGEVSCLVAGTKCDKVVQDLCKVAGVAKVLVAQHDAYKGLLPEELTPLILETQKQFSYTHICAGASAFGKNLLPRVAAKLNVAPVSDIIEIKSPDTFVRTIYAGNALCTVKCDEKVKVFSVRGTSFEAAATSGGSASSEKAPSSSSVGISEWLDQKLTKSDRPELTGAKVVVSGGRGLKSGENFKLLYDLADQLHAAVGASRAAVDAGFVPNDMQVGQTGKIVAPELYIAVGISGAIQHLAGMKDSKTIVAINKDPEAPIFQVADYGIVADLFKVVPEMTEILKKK
T1 sequence 2: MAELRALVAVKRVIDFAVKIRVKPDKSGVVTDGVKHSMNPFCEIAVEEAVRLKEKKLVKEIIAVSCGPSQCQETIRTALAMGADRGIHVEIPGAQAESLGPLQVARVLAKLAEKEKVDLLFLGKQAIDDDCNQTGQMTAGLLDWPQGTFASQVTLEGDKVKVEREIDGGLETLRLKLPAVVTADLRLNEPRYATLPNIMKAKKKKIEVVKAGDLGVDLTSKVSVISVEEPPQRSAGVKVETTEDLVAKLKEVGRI

[2] = biological target: T2, Coq6 (mouse (endogenous in heart mitochondria)) (UniProt Q8R1S0)
T2 sequence: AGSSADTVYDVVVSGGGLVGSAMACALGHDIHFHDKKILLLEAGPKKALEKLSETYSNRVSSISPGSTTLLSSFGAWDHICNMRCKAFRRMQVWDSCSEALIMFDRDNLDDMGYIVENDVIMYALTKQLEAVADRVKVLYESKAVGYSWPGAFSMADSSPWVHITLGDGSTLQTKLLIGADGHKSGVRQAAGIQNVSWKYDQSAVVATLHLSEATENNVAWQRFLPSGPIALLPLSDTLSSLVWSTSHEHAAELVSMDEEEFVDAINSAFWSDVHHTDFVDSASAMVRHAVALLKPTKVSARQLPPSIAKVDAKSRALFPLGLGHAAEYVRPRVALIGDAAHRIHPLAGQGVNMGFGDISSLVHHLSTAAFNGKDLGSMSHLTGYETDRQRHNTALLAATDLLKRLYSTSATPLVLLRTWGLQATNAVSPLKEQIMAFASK

[3] = biological target: T3, mitochondrial Acetyl-CoA acetyltransferase (Acat1) (mouse (endogenous in heart mitochondria)) (UniProt Q8QZT1)
T3 sequence: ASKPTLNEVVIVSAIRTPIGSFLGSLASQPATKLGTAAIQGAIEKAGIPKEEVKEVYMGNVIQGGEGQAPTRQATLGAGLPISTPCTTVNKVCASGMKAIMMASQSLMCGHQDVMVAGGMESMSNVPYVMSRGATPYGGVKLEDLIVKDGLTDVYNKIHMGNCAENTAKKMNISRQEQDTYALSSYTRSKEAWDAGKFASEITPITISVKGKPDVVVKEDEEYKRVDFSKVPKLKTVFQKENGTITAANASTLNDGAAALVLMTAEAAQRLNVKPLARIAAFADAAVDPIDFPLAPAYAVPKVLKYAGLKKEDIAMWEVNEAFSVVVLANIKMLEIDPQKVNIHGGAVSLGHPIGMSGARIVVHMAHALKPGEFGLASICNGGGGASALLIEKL

[4] = biological target: trifunctional enzyme complex (mouse (endogenous in heart mitochondria)) (UniProt Q8BMS1+Q99JY0)
[5] = biological target: T4, mitochondrial 3-ketoacyl-CoA thiolase (mouse (endogenous in heart mitochondria)) (UniProt Q8BWT1)
T4 sequence: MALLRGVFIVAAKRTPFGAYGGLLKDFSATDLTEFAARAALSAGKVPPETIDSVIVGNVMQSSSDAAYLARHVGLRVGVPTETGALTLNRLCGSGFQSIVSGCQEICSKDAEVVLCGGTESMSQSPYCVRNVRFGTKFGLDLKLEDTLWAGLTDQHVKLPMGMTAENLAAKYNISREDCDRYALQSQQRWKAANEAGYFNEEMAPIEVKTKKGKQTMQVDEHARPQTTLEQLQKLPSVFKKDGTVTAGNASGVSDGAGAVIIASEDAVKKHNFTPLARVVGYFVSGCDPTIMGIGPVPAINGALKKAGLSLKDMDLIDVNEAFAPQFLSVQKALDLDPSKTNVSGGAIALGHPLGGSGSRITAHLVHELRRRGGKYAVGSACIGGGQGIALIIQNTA

B1: Lyrm5 (protein, UniProt Q91V16 1-86)
chain: MANSLRGEVLTLYKNLLYLGRDYPKGADYFKRRLKNVFLKNKDVEDPEKIKELIARGEFVMKELEALYFLRKYRAMKQRYYSDTKV
binding [1]: binds

B2: Coq3 (protein, UniProt Q8BMS4 87-370)
chain: STSQTTVDSREVKNFQALAHTWWDEYGKFAPLHSMNDLRVPFIRDNLLKTSASHHPGKPLSGMKILDVGCGGGLLTEPLGRLGASVVGIDPVAENIKIAQHHKSFDPVLDKRIQYKVCSLEEAVDESAECFDAVVASEVVEHVSHLEMFIQCCYQVLKPGGSLFITTVNKTQLSYALGIVFAEQIAGIVPKGTHTWEKFVSPEKLESILEPNGLSVETVAGLVYNPFSGYWHWSENTSLNYAAHAVRSRAQEHQEPAESALKGETGALHANTSGSPSVREEQRT
binding [2]: binds

B4: Junb (protein, UniProt P09450 1-344)
chain: MCTKMEQPFYHDDSYAAAGYGRSPGSLSLHDYKLLKPTLALNLADPYRGLKGPGARGPGPEGSGAGSYFSGQGSDTGASLKLASTELERLIVPNSNGVITTTPTPPGQYFYPRGGGSGGGTGGGVTEEQEGFADGFVKALDDLHKMNHVTPPNVSLGASGGPQAGPGGVYAGPEPPPVYTNLSSYSPASAPSGGSGTAVGTGSSYPTATISYLPHAPPFAGGHPAQLGLSRGASAFKEEPQTVPEARSRDATPPVSPINMEDQERIKVERKRLRNRLAATKCRKRKLERIARLEDKVKTLKAENAGLSSAAGLLREQVAQLKQKVMTHVSNGCQLLLGVKGHAF
binding [4]: binds

Results, then the binder that gave them:

binding [3]: binds
B3: Stau1 (protein, UniProt Q9Z108 1-487)
chain: MYKPVDPHSRMQSTYSYGMRGGAYPPRYFYPFPVPPLLYQVELSVGGQQFNGKGKMRPPVKHDAPARALRTLQSEPLPERLEVNGREAEEENLNKSEISQVFEIALKRNLPVNFEVARESGPPHMKNFVTRVSVGEFVGEGEGKSKKISKKNAARAVLEQLRRLPPLPAVERVKPRIKKKSQPTCKTAPDYGQGMNPISRLAQIQQAKKEKEPEYMLLTERGLPRRREFVMQVKVGHHTAEGVGTNKKVAKRNAAENMLEILGFKVPQAQPAKPALKSEEKTPVKKPGDGRKVTFFEPSPGDENGTSNKDEEFRMPYLSHQQLPAGILPMVPEVAQAVGVSQGHHTKDFTRAAPNPAKATVTAMIARELLYGGTSPTAETILKSNISSGHVPHGPRTRPSEQLYYLSRAQGFQVEYKDFPKNNKNECVSLINCSSQPPLVSHGIGKDVESCHDMAALNILKLLSELDQQSTEMPRTGNGPVSACGRC

binding [5]: binds
B5: Mum1 (protein, UniProt Q6DID5 1-682)
chain: MTDAKYVLCRWGKRLWPAKVLARTETSAKNKKKKEFFLDVQILSLKEKIQVKSSAVEALQKSHIENIAAFLASQNEVPATPLEELTYRRSLRVALDVLNERTSLSPESHPIEDGITLSQKEKTDADVASQVSSAPSPSLLGEDGQAVVAQCASKRRSEYSSKSLLPSSALEDHLRCQVGPKTGLSESGAGDKSQDDSGLQLDHGQESTTKKRQRNLGEKPTRRRRSESGLSKGESVLKSQGQASSCVALASPRPPSQTRDEEPCAGVKGCDWVKSSGNIRPLSASERSRGCPTKRPRLDGGQNPPTRQLGTRTVGAAPCPRSCSGEVTMLCSAGAGDKPEEDPVSSEESTGFKSTHSLLEEEEEEEEEPPRILLYHEPRSFEVGMLVWLKYQKYPFWPAVVKSVRRRDKKASVLFIEGNMNPKGRGITVSLRRLKHFDCKEKHALLDRAKEDFAQAIGWCVSLITDYRVRLGCGSFAGSFLEYYAADISYPVRKSIQQDVLGTRFPQLGKGDPEEPVGDSQLGQWRPCRKVLPDRSRAARDRANQKLVEYIVKAKGAESHLRAILHSRKPSRWLKTFLSSSQCVTCMETYLEDEAQLDEVVEYLQGVCRDMDGQVPERGSGDRIRFILDVLLPEAIICAISAVEAVDYKTAEQKYIRGPTLSYREKEIFDNELLEERNRRRR
